This experiment has as its target T1, human ENO1 protein (human, UniProt P06733 1-434).
T1 construct: also called ENOl; alpha-enolase
Description: SPR, BIAcore 2000.

The chains behind the UniProt entries cited, without tags or fusion partners.
UniProt P06733: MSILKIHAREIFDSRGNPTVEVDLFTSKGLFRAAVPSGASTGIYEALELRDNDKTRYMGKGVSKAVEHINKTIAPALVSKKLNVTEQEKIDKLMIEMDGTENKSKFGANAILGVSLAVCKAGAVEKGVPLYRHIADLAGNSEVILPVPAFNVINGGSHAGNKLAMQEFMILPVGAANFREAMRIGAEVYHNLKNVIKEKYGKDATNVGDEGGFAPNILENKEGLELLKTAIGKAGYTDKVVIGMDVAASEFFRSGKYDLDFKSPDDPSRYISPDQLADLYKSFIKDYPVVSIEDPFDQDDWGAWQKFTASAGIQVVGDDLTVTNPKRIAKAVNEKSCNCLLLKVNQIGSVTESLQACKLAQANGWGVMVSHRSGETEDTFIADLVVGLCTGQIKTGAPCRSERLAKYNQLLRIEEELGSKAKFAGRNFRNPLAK

Results are given in words; binding and its absence hold for the method and conditions named. Some binding calls cover weakened binding; strength is not graded here.

B1: hum EN10 mAb IMGT (antibody, IgG1, V domains shown)
VH: QVQLVQSGAEVKKPGASVKVSCKASGYTFTSCVMNWVRQAPGQGLEWMGYINPYNDGTKYNEKFKGRVTMTTDTSTSTAYMELRSLRSDDTAVYYCAREGFYYGNFDNWGQGTLVTVSS
VL: DIQMTQSPSSLSASVGDRVTITCRASENIYSYLTWYQQKPGKAPKLLIYNAKTLPEGVPSRFSGSGSGTDFTLTISSLQPEDFATYYCQHHYGTPYTFGQGTKLEIKR
notes: also called humanized EN10 mAb IMGT; Hum EN10 IMGT
For the molecule B1, the binding result was “binds”.

(Values after patent EP3240566B1 (Development Center for Biotechnology, dated 2020).)
